The list shows a part of the results.
Assays:
Assay in all cases: log2 fold change, soluble protein after heating vs DMSO (PISA); higher = thermal stabilisation; K562 lysate, 10 uM; active = over 0.2 and 3.5 SD of the protein, either way, in both replicates (recomputed)
[1] = compound: CS(=O)(=O)CCNCc1ccc(-c2ccc3ncnc(Nc4ccc(OCc5cccc(F)c5)c(Cl)c4)c3c2)o1 [lapatinib]
Procedure, shortened: (§1)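 Following dounce homogenisation of K562 pellets in PBS pH 7.4 with 1 mM MgCl2, crude extract at 1 mg/mL protein was incubated for 30 min with 10 μM compound. Aliquots were then heated for 3 min over 48°C-58°C and pooled, NP-40 was added to 0.5% at 4°C, and soluble protein was recovered as the supernatant at 21,000xg for 90 min. Channel-sum-equalised TMTpro 16plex LC-MS/MS quantified this protein. Each value, from duplicates, is a log-two fold change in thermal stability relative to solvent controls.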

Amino acid sequences for entries named in this document (tags omitted). A change or cut given only in a name is not applied to a line headed by its entry.
UniProt P33993, whole entry, looked up: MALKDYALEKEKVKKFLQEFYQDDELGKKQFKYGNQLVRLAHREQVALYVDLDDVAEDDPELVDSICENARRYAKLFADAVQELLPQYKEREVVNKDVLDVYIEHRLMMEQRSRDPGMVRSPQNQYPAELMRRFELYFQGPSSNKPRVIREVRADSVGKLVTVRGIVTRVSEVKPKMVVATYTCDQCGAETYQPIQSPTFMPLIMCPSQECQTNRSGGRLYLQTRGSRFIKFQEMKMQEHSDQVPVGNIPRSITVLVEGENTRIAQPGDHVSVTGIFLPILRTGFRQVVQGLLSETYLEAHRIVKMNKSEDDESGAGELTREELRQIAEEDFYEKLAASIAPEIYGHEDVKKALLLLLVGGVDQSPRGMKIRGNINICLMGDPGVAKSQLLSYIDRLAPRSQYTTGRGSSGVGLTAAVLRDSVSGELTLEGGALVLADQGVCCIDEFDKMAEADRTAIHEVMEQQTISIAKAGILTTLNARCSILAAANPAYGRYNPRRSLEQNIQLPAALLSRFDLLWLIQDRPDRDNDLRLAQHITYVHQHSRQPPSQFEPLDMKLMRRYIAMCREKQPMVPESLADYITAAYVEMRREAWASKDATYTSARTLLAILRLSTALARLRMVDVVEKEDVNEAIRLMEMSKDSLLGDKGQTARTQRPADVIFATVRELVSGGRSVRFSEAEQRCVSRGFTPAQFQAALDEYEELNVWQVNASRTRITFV
UniProt Q68D91: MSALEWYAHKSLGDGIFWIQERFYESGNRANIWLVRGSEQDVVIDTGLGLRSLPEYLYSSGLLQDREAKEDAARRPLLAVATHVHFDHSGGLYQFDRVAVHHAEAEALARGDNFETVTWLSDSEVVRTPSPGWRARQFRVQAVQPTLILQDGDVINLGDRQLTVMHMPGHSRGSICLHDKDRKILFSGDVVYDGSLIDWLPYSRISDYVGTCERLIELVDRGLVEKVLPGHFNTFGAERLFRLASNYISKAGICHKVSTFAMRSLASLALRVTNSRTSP
UniProt Q9NWR8: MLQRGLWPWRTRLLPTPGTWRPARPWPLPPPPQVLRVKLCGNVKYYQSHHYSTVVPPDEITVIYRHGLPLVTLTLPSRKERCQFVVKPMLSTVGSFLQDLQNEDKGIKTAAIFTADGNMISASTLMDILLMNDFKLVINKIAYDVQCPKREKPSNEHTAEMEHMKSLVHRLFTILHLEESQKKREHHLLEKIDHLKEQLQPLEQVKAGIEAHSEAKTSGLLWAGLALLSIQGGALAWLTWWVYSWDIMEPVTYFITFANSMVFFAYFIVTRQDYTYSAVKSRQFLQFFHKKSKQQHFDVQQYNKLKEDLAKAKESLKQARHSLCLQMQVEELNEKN
UniProt Q9Y3C7: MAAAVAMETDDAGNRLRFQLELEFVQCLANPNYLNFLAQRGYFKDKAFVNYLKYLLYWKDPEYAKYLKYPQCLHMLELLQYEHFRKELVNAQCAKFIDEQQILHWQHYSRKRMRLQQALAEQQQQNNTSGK
UniProt O60318: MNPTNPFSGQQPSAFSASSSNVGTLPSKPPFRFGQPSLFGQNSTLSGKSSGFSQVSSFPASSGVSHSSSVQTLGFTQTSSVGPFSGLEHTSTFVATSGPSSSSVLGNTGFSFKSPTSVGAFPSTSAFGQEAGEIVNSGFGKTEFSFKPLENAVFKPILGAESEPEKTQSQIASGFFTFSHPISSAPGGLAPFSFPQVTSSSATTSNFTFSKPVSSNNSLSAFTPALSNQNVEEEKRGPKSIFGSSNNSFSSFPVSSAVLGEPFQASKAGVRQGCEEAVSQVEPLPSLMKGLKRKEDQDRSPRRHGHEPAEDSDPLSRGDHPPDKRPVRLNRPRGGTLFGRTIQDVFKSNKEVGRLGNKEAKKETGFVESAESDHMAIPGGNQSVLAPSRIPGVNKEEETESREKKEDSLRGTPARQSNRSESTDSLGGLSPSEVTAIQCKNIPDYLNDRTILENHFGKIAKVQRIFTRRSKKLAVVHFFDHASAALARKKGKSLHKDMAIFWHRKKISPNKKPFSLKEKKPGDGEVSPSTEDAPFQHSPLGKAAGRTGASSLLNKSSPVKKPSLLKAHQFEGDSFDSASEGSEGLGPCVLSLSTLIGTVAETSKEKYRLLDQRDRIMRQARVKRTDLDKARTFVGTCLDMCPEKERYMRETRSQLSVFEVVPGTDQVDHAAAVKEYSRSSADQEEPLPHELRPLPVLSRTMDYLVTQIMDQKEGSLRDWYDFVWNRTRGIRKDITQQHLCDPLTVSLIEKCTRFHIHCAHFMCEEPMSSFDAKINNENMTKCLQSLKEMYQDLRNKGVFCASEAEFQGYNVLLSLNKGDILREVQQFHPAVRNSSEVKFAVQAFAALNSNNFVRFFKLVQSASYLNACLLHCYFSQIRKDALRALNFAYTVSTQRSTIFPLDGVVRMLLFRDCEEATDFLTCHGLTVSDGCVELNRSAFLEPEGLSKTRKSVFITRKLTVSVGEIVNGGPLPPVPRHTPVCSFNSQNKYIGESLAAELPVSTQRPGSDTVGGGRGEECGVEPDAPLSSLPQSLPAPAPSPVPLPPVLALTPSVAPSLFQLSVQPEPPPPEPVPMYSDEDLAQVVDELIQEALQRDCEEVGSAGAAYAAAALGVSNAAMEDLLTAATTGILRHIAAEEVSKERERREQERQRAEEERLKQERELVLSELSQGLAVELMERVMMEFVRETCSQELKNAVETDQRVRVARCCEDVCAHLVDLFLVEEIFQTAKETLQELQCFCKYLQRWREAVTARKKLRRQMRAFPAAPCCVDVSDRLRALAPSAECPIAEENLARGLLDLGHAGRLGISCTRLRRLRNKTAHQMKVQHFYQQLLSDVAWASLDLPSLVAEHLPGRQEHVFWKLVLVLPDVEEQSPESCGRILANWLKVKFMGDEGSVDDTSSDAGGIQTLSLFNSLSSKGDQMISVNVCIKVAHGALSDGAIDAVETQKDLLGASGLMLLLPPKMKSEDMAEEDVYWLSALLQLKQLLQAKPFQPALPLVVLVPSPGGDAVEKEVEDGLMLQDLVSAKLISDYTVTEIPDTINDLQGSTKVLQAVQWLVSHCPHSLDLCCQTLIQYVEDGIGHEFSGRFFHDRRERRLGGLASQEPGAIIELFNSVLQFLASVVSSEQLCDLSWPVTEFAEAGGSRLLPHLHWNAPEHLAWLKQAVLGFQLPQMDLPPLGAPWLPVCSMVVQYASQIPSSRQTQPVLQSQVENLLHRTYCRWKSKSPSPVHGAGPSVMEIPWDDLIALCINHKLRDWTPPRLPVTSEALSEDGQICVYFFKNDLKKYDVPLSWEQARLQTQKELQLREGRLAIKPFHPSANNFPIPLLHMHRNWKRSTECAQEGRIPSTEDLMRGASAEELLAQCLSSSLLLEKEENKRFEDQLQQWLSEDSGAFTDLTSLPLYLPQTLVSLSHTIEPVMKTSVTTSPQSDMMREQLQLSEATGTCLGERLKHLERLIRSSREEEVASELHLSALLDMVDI
UniProt Q9GZU1, whole entry, looked up: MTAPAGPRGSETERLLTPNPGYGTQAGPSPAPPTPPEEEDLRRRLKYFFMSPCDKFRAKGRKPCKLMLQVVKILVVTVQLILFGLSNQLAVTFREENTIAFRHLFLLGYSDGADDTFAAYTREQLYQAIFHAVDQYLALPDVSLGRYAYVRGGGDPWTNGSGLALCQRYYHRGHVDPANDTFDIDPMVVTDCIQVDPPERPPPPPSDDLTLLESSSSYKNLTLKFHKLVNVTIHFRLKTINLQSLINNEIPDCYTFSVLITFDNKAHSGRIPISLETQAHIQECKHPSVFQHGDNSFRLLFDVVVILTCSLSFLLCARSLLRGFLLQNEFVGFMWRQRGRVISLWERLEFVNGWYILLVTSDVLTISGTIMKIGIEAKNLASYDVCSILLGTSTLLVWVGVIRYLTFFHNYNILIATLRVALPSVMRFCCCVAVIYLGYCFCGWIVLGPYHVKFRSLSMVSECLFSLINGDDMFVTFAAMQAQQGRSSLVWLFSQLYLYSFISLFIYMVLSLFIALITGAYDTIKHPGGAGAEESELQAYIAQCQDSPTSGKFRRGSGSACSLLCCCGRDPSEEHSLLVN
UniProt Q08431: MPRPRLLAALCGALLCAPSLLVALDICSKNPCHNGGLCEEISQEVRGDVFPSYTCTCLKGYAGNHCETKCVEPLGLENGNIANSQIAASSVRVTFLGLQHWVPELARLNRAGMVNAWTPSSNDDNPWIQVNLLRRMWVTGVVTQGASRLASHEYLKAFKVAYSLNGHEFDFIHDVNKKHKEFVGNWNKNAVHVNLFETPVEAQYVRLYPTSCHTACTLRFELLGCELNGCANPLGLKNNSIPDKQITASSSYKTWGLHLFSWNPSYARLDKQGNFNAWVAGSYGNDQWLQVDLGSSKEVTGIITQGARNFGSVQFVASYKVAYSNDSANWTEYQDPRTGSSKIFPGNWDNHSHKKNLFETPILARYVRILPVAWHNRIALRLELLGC
UniProt Q8NHS3: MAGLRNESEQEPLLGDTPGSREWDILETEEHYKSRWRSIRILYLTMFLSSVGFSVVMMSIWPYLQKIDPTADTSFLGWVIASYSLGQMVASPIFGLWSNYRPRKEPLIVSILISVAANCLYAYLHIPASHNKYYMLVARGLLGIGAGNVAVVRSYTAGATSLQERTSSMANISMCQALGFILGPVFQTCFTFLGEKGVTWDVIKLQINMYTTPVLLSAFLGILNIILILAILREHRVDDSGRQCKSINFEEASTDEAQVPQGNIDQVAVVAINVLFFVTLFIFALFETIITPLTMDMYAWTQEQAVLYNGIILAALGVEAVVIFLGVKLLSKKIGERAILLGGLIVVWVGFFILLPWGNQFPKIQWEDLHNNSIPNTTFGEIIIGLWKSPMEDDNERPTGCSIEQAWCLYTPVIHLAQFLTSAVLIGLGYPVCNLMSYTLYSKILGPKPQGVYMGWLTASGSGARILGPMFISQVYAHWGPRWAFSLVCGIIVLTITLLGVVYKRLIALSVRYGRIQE
UniProt Q02078: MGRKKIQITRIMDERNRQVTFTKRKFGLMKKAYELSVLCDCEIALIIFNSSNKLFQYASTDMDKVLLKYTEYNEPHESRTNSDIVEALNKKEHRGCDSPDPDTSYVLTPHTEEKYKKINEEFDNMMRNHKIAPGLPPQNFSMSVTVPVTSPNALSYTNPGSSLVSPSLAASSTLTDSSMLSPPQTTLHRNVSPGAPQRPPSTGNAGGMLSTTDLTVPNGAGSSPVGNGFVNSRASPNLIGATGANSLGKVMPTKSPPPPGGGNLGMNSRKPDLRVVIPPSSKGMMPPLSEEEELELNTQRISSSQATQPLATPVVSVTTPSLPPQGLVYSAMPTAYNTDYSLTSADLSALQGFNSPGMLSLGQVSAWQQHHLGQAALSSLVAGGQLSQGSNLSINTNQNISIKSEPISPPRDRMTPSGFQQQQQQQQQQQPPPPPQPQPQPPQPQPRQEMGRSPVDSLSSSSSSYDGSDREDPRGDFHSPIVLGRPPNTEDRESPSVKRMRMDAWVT
UniProt Q8NI22: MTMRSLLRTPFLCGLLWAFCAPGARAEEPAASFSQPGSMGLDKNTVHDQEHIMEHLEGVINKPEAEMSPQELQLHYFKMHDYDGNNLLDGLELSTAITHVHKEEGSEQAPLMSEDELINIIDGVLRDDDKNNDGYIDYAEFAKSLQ
UniProt Q9UBP6: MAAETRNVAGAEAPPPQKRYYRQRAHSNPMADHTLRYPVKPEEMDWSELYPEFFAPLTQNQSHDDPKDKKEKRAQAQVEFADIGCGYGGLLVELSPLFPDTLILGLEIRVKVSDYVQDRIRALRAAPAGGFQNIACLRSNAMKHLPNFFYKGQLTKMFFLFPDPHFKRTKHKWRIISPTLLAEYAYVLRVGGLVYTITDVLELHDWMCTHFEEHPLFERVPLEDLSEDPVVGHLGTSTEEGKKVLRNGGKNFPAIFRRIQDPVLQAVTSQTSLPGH
UniProt Q8WXB1: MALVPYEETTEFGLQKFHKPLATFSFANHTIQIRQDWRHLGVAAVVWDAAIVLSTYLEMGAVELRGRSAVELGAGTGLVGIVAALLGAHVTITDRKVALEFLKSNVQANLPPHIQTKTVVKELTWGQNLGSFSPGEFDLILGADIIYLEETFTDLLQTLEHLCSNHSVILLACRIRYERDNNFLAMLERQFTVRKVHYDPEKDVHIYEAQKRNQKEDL
UniProt O00470: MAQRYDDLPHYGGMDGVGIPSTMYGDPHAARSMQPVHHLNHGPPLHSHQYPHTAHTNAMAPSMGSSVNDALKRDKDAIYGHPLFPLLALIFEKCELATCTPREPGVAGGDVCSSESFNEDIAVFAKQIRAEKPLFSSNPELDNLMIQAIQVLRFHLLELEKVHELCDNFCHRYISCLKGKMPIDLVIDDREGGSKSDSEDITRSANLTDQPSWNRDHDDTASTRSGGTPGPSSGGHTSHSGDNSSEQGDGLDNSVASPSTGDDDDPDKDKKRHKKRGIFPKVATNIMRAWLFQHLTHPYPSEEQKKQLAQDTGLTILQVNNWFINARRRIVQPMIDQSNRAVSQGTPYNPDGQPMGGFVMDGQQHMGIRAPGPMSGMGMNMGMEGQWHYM

[2] = compound: CS(=O)(=O)N1CCN(Cc2cc3nc(-c4cccc5[nH]ncc45)nc(N4CCOCC4)c3s2)CC1 [pictilisib]
Procedure, shortened: as §1

[3] = compound: C[C@@H](Oc1cc(-c2cnn(C3CCNCC3)c2)cnc1N)c1c(Cl)ccc(F)c1Cl [crizotinib]
Procedure, shortened: as §1

[4] = compound: C[C@H](C1=CC=C(C=C1)C(=O)NC2=C3C=CNC3=NC=C2)N
Procedure, shortened: as §1

[5] = compound: C[C@H](Nc1ncnc2nc[nH]c12)c1cc2cccc(Cl)c2c(=O)n1-c1ccccc1 [duvelisib]
Procedure, shortened: as §1

[6] = compound: Cc1cc(Nc2cc(CN3CCOCC3)c3nc(C)c(Cc4ccc(Cl)cc4F)n3n2)n[nH]1 [gandotinib]
Procedure, shortened: as §1

[7] = compound: Cc1cc(Nc2cc(N3CCN(C)CC3)nc(Sc3ccc(NC(=O)C4CC4)cc3)n2)n[nH]1 [tozasertib]
Procedure, shortened: as §1

[8] = compound: Cc1ccc(-n2nc(C(C)(C)C)cc2NC(=O)Nc2ccc(OCCN3CCOCC3)c3ccccc23)cc1 [doramapimod]
Procedure, shortened: as §1

[9] = compound: Cc1ccc(NC(=O)c2ccc(CN3CC[C@H](N(C)C)C3)c(C(F)(F)F)c2)cc1Nc1nccc(-c2cncnc2)n1 [bafetinib]
Procedure, shortened: as §1

[10] = compound: Cc1cccc(CC(=O)N2CCc3c2ccc(-c2cn(C)c4ncnc(N)c24)c3F)n1
Procedure, shortened: as §1

Measured: log2 fold change

MCM7 (UniProt P33993)
inactive: [1] -0.012 | [2] 0.006 | [3] -0.01 | [4] 0.023 | [5] 0.044 | [6] -0.04 | [7] -0.014 | [8] 0.003 | [9] -0.041 | [10] 0.028

MBLAC2 (UniProt Q68D91)
inactive: [1] -0.012 | [2] -0.008 | [3] 0.025 | [4] -0.027 | [5] 0.038 | [6] 0.036 | [7] 0.084 | [8] 0.033 | [9] -0.049 | [10] 0.006

MEX3B (UniProt Q6ZN04)
inactive: [1] 0.108 | [2] 0.097 | [4] -0.278 | [5] -0.059 | [6] 0.215 | [7] 0.18 | [9] -0.039 | [10] 0.069

MFN2 (UniProt O95140)
inactive: [1] -0.035 | [2] 0.015 | [3] -0.036 | [4] 0.009 | [5] 0.015 | [6] -0.041 | [7] -0.01 | [8] 0.058 | [9] -0.042 | [10] 0.004

MAU2 (UniProt Q9Y6X3)
inactive: [1] -0.018 | [2] -0.025 | [3] -0.033 | [4] 0.055 | [6] -0.068 | [7] -0.003 | [8] 0.062 | [9] 0.001 | [10] -0.056

METTL9 (UniProt Q9H1A3)
inactive: [1] -0.179 | [2] -0.045 | [3] -0.024 | [4] -0.171 | [5] 0.119 | [6] -0.036 | [8] -0.102 | [9] -0.135 | [10] 0.237

MCUB (UniProt Q9NWR8)
inactive: [1] 0.044 | [2] 0.088 | [3] -0.17 | [4] 0.187 | [5] -0.018 | [6] -0.347 | [8] 0.05 | [9] -0.045 | [10] -0.016

MED31 (UniProt Q9Y3C7)
inactive: [1] 0.062 | [2] -0.07 | [3] 0.015 | [4] 0.064 | [5] -0.062 | [6] 0.04 | [8] -0.061 | [9] -0.006 | [10] 0.041

MED26 (UniProt O95402)
inactive: [1] -0.004 | [2] -0.066 | [3] 0.013 | [4] -0.128 | [6] 0.061 | [7] -0.005 | [8] 0.064 | [9] -0.155 | [10] -0.221

MCM3AP (UniProt O60318)
inactive: [1] -0.039 | [2] -0.169 | [4] -0.028 | [5] -0.21 | [6] -0.048 | [9] -0.125 | [10] -0.24

MED7 (UniProt O43513)
inactive: [1] 0.039 | [2] 0.08 | [3] 0.04 | [4] 0.025 | [5] -0.02 | [6] 0.038 | [7] -0.17 | [8] 0.033 | [9] -0.106 | [10] -0.066

MED15 (UniProt Q96RN5)
inactive: [1] 0.016 | [2] -0.009 | [3] 0.055 | [4] -0.002 | [5] 0.022 | [6] -0.005 | [7] -0.003 | [8] -0.012 | [9] -0.067 | [10] -0.012

METTL14 (UniProt Q9HCE5)
inactive: [1] 0.011 | [2] 0.016 | [3] 0.03 | [4] 0.171 | [5] 0.016 | [6] -0.014 | [7] 0.023 | [8] 0.024 | [9] -0.03 | [10] -0.049

MCOLN1 (UniProt Q9GZU1)
inactive: [1] -0.019 | [2] -0.053 | [3] -0.005 | [4] -0.204 | [5] 0.04 | [6] 0.075 | [8] 0.062 | [9] 0.127 | [10] 0.06

MFGE8 (UniProt Q08431)
inactive: [1] -0.061 | [2] 0.013 | [3] 0.016 | [4] -0.087 | [5] -0.041 | [6] -0.029 | [7] 0.007 | [8] 0.021 | [9] 0.034 | [10] 0.038

MFSD11 (UniProt O43934)
inactive: [1] 0.038 | [2] 0.01 | [4] -0.158 | [6] 0.065 | [9] -0.047 | [10] 0.001

MCM10 (UniProt Q7L590)
inactive: [1] -0.066 | [2] -0.104 | [3] -0.106 | [4] 0.075 | [5] -0.009 | [6] -0.018 | [8] -0.009 | [9] -0.063 | [10] -0.051

MDH1 isoform 3 (UniProt P40925)
inactive: [1] -0.024 | [2] 0.016 | [3] 0.027 | [4] -0.021 | [5] -0.011 | [6] 0 | [7] 0.002 | [8] -0.023 | [9] 0.085 | [10] -0.061

MFSD8 (UniProt Q8NHS3)
inactive: [1] -0.003 | [2] -0.209 | [3] -0.031 | [4] -0.108 | [6] 0.058 | [8] -0.133 | [9] -0.02 | [10] -0.006

MECP2 isoform 2 (UniProt P51608)
inactive: [1] 0.033 | [2] 0.033 | [3] 0.008 | [4] -0.192 | [5] -0.01 | [6] 0.026 | [7] -0.003 | [8] -0.017 | [9] 0.032 | [10] 0.045

MED19 (UniProt A0JLT2)
inactive: [1] 0.026 | [2] -0.153 | [3] -0.009 | [4] 0.019 | [5] -0.041 | [6] -0.039 | [8] 0.02 | [9] -0.549 | [10] -0.127

METTL5 (UniProt H0YFV5)
inactive: [1] -0.081 | [2] -0.021 | [3] -0.107 | [8] -0.021 | [9] -0.006

8 successive records out of the list so far, for reference:
MCM7 (UniProt P33993)
inactive: [1] -0.012 | [2] 0.006 | [3] -0.01 | [4] 0.023 | [5] 0.044 | [6] -0.04 | [7] -0.014 | [8] 0.003 | [9] -0.041 | [10] 0.028

MBLAC2 (UniProt Q68D91)
inactive: [1] -0.012 | [2] -0.008 | [3] 0.025 | [4] -0.027 | [5] 0.038 | [6] 0.036 | [7] 0.084 | [8] 0.033 | [9] -0.049 | [10] 0.006

MEX3B (UniProt Q6ZN04)
inactive: [1] 0.108 | [2] 0.097 | [4] -0.278 | [5] -0.059 | [6] 0.215 | [7] 0.18 | [9] -0.039 | [10] 0.069

MFN2 (UniProt O95140)
inactive: [1] -0.035 | [2] 0.015 | [3] -0.036 | [4] 0.009 | [5] 0.015 | [6] -0.041 | [7] -0.01 | [8] 0.058 | [9] -0.042 | [10] 0.004

MAU2 (UniProt Q9Y6X3)
inactive: [1] -0.018 | [2] -0.025 | [3] -0.033 | [4] 0.055 | [6] -0.068 | [7] -0.003 | [8] 0.062 | [9] 0.001 | [10] -0.056

METTL9 (UniProt Q9H1A3)
inactive: [1] -0.179 | [2] -0.045 | [3] -0.024 | [4] -0.171 | [5] 0.119 | [6] -0.036 | [8] -0.102 | [9] -0.135 | [10] 0.237

MCUB (UniProt Q9NWR8)
inactive: [1] 0.044 | [2] 0.088 | [3] -0.17 | [4] 0.187 | [5] -0.018 | [6] -0.347 | [8] 0.05 | [9] -0.045 | [10] -0.016

MED31 (UniProt Q9Y3C7)
inactive: [1] 0.062 | [2] -0.07 | [3] 0.015 | [4] 0.064 | [5] -0.062 | [6] 0.04 | [8] -0.061 | [9] -0.006 | [10] 0.041

Additional entries follow.

METTL2A (UniProt Q96IZ6)
inactive: [1] -0.001 | [2] -0.049 | [3] -0.026 | [4] 0.056 | [5] 0.052 | [6] -0.065 | [7] 0.029 | [8] 0.035 | [9] -0.017 | [10] -0.065

METTL3 (UniProt Q86U44)
inactive: [1] -0.005 | [2] -0.015 | [3] 0.001 | [4] -0.017 | [5] -0.006 | [6] 0.017 | [7] 0.032 | [8] 0.023 | [9] -0.031 | [10] -0.014

MEF2A (UniProt Q02078)
inactive: [1] -0.191 | [2] -0.09 | [3] -0.028 | [4] -0.181 | [5] 0.094 | [6] 0.096 | [7] -0.039 | [8] 0.022 | [9] -0.071 | [10] 0.068

MCFD2 (UniProt Q8NI22)
inactive: [1] 0.136 | [2] -0.01 | [3] 0.115 | [4] 0.152 | [5] 0.045 | [6] -0.126 | [7] -0.019 | [8] -0.067 | [9] 0.132 | [10] -0.076

METTL1 (UniProt Q9UBP6)
inactive: [1] 0.003 | [2] 0.03 | [4] -0.039 | [5] -0.002 | [6] 0.001 | [7] -0.021 | [8] 0.015 | [9] -0.011 | [10] 0.046

MBIP (UniProt Q9NS73)
inactive: [1] -0.037 | [2] -0.136 | [3] 0.102 | [4] -0.101 | [5] 0.052 | [6] -0.032 | [7] 0.194 | [8] -0.024 | [9] -0.027 | [10] 0.113

METTL21A (UniProt Q8WXB1)
inactive: [1] 0.004 | [2] 0.06 | [3] -0.043 | [4] -0.083 | [5] 0.131 | [6] 0.038 | [8] -0.081 | [9] -0.04 | [10] 0.016

MBTPS1 (UniProt Q14703)
inactive: [2] 0.012 | [3] -0.008 | [4] 0.114 | [5] -0.006 | [6] -0.164 | [7] -0.009 | [8] 0.01 | [9] -0.001 | [10] -0.15

MEIS1 (UniProt O00470)
inactive: [2] 0.141 | [3] -0.006 | [4] 0.151 | [6] 0.082 | [7] -0.12 | [8] -0.099 | [9] 0 | [10] -0.177

— the supplement of paper PMC10849652
